Results published in article PMC6728143.
The exact form of at least one protein or probe is not confirmed. At least one result comes from cells or an extract, where the contact may be indirect. For some assays here: Negatives hold for the conditions tested. For some assays here: Tags and fusion partners may be left off the protein sequences shown.

Amino acid sequences for entries named in this document (tags omitted). A change or cut given only in a name is not applied to a line headed by its entry.
UniProt P06748, whole entry: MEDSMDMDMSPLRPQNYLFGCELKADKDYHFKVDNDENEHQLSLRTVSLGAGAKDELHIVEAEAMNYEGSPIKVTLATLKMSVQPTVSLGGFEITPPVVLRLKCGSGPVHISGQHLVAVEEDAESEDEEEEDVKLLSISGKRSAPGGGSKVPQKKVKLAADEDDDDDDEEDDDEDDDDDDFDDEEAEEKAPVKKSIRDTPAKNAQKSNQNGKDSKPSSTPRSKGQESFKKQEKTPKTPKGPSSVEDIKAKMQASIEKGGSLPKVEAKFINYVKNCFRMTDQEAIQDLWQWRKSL
UniProt Q9UKV8, whole entry: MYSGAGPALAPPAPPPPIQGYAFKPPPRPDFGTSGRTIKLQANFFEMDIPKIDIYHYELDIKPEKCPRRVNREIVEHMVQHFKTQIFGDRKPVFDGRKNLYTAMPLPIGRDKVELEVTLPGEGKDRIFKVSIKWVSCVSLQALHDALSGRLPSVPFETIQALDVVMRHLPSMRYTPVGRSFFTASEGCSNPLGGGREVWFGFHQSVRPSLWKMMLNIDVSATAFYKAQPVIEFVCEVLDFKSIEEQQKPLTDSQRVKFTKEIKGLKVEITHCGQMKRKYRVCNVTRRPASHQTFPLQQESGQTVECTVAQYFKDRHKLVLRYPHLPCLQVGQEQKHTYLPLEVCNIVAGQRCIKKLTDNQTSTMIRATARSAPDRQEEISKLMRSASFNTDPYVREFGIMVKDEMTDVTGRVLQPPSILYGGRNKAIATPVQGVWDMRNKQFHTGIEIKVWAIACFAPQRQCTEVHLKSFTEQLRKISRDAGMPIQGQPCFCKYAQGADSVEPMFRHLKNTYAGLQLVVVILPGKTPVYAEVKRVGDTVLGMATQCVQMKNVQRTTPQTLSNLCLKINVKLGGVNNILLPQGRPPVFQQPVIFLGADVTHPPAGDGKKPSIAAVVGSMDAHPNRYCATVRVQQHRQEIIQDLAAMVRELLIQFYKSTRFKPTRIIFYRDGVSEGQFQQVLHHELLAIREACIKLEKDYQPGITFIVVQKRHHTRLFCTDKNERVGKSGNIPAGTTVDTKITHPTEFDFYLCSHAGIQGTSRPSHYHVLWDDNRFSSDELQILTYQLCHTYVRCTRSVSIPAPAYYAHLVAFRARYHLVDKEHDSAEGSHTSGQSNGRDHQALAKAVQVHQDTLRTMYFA
UniProt P05455: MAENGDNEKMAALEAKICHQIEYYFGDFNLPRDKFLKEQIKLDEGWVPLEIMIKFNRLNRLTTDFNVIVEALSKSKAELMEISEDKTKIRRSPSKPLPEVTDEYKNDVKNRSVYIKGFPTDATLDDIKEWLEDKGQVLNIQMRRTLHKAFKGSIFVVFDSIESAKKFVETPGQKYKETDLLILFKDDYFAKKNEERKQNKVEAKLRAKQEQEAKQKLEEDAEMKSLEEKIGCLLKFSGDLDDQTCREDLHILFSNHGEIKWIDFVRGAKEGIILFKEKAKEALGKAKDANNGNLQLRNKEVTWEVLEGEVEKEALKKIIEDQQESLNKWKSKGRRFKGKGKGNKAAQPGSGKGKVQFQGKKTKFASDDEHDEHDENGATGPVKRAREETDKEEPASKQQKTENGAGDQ
UniProt P19338, whole entry: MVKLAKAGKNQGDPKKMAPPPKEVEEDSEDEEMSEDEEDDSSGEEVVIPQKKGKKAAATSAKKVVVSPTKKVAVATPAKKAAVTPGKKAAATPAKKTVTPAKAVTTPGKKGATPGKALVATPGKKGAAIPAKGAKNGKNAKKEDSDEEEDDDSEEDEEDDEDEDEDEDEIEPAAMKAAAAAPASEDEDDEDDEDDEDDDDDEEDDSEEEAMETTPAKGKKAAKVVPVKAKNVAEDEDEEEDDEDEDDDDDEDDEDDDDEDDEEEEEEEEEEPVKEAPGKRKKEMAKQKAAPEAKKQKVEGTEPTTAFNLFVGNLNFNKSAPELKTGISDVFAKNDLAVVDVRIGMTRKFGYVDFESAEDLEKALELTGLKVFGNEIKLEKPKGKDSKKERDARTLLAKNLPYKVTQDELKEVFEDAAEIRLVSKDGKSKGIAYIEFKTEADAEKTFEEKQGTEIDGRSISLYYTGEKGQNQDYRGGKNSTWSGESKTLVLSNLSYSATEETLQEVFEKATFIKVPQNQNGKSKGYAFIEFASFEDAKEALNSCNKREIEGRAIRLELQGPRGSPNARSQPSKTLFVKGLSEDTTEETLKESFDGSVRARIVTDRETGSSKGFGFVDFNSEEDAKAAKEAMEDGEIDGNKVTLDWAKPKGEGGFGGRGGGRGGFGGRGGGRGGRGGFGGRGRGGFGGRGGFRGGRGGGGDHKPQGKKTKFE

Columns and labels:
Test in all cases: streptavidin pull-down, mass spectrometry
[1] = molecular target: nucleophosmin (Homo sapiens (MDA-MB-231)) (UniProt P06748); conditions: in vitro packaging reaction with membranes, cytosol, ATP, may be indirect; protein in an extract; label: 3' biotin
[2] = molecular target: Ago2 (Homo sapiens (MDA-MB-231)) (UniProt Q9UKV8); conditions: not detected, protein absent from buoyant vesicles; protein in an extract; label: 3' biotin
[3] = molecular target: Lupus La protein (La), endogenous (Homo sapiens (MDA-MB-231)) (UniProt P05455); conditions: in vitro packaging reaction with membranes, cytosol, ATP; protein in an extract; label: 3' biotin
[4] = molecular target: nucleolin (Homo sapiens (MDA-MB-231)) (UniProt P19338); conditions: in vitro packaging reaction with membranes, cytosol, ATP, may be indirect; protein in an extract; label: 3' biotin
[5] = molecular target: T1, SYNCRIP (Homo sapiens (MDA-MB-231)) (UniProt O60506); conditions: not detected, presence in input not shown; protein in an extract; label: 3' biotin
T1 sequence (looked up, limits assumed): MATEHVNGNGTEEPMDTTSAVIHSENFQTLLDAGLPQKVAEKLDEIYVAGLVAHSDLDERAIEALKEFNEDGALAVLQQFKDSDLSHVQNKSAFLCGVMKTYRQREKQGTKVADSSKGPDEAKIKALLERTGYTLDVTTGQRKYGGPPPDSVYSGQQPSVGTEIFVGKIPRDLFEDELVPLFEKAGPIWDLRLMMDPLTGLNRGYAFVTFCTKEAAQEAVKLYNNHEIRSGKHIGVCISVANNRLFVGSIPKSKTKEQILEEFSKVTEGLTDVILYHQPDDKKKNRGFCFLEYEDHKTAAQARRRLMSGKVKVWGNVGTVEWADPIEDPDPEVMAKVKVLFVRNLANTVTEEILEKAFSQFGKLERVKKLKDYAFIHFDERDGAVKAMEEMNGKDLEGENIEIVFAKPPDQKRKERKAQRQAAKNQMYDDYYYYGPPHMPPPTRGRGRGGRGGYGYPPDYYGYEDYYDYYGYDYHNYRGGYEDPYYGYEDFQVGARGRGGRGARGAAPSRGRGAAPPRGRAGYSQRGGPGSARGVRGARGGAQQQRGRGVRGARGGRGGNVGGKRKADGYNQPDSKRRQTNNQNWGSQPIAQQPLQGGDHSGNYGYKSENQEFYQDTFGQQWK

UGGAGUGUGACAAUGGUGUUUG [3'-biotinylated miR-122]
binding result [1]: binds
binding result [2]: no binding
binding result [3]: binds
binding result [4]: binds
binding result [5]: no binding
